Test results reported in paper PMC6299093.
For at least one entry, the source does not settle the construct or the ends of the probe. The comparison behind a weaker result is the experiment's own reference, which may not be listed here. At least one verdict rests on a figure or table, not on a statement of the authors.

System: BRCA1 + BARD1
Assay: competition with a labelled probe
Conditions: 25 mM Tris-HCl pH 7.5, 90 mM KCl, 1 mM EDTA, 1 mM DTT, 0.1 mg/ml BSA, RNaseOUT, 37 C 30 min, 10 nM substrate (competition: 1 nM, 10 + 10 min), 6% native PAGE at 4 C, recombinant protein

Sequence | binding result (cold hybrid against 1 nM labelled dsDNA, modest preference for hybrid, second strand RNA, DNA:RNA hybrid, letters put together from the description) | binding result (cold dsDNA against 1 nM labelled DNA:RNA, modest preference for hybrid over dsDNA)
GACGTCATAGACGATTACATTGCTAGGACATGCTGTCTAGAGACTATCGC / GCGAUAGUCUCUAGACAGCAUGUCCUAGCAAUGUAAUCGUCUAUGACGUC [unlabelled DNA:RNA hybrid competitor] | binds | –
GACGTCATAGACGATTACATTGCTAGGACATGCTGTCTAGAGACTATCGC (double strand) [unlabelled dsDNA competitor] | – | binds more weakly
